In PubChem BioAssay AID200 (DTP/NCI, 2004):
The list does not hold the whole screen: it is rich in T/C values a quarter to a half above the control, in often repeated tests (any T/C) and in doses without a T/C. Further doses and runs are listed elsewhere. T/C is the treated group as % of the vehicle group. Some entries give survivors of the animals treated and no T/C: the source holds a T/C of zero for them, seemingly a mark for toxic or unscored doses. Some doses without a T/C left all or most animals alive at the check, yet need not have been tolerated: the source hardly ever lists a survival T/C far under the control, and the zero likely stands for such cases as well. Survivors were counted at the toxicity check, usually on the fifth day, unless a day is given; later deaths do not show. Schedule codes are those of the source, read here as Q, the interval in days (D) or hours (H), X, the number of doses. Some entries were tested several times; the values are given in rising order. Where survival is the endpoint, this PubChem deposit counts one and a half times the control or more as active, and values a quarter to a half above the control carry no call in these data; other NCI protocols may use other cut-offs. Some T/C values are followed by the survivors on the day toxicity was checked, most often the fifth; without a count, all were alive then.

Test system: B6C3F1 mice, B16 melanoma ip, median survival T/C
Test: NCI In Vivo Anticancer Drug Screen. Data for tumor model B16 Melanoma (intraperitoneal) in B6C3F1 mice
Details: T/C endpoint: median survival time, higher T/C = longer survival
Outline: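 Readout: survival or tumor size in treated mice relative to vehicle controls (T/C). Model uses transplantable tumors grown in mice.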

[1] = dose: 25.0 mg/kg/injection, schedule: Q01DX009 (ip), vehicle: saline with Tween-80
[2] = dose: 50.0 mg/kg/injection, schedule: Q01DX009 (ip), vehicle: saline with Tween-80
[3] = dose: 100.0 mg/kg/injection, schedule: Q01DX009 (ip), vehicle: saline with Tween-80
[4] = dose: 200.0 mg/kg/injection, schedule: Q01DX009 (ip), vehicle: saline with Tween-80
[5] = dose: 12.5 mg/kg/injection, schedule: Q01DX009 (ip), vehicle: saline
[6] = dose: 50.0 mg/kg/injection, schedule: Q01DX009 (ip), vehicle: saline
[7] = dose: 400.0 mg/kg/injection, schedule: Q01DX009 (ip), vehicle: Klucel (hydroxypropylcellulose) (HPC)
[8] = dose: 400.0 mg/kg/injection, schedule: Q01DX009 (ip), vehicle: saline with Tween-80

Structure (SMILES): c1ccc([Te][Te]c2ccccc2)cc1
- T/C (dose: 12.5 mg/kg/injection, schedule: Q01DX009 (ip), vehicle: saline with Tween-80): 128 % of control
- survivor count [1]: 9 of 10
- survivor count (dose: 48.0 mg/kg/injection, schedule: Q01DX009 (ip), vehicle: saline with Tween-80): 8 of 10
- survivor count [2]: 3 of 10
- survivor count [3]: 0 of 10
- survivor count [4]: 0 of 10

Structure (SMILES): CC(C)NC(=O)OCc1c(COC(=O)NC(C)C)c(-c2ccc(Cl)c(Cl)c2)n2c1C[C@@H](O)C2
- T/C (dose: 2.5 mg/kg/injection, schedule: Q01DX009 (ip), vehicle: Klucel (hydroxypropylcellulose) (HPC)): 129 % of control
- T/C (dose: 5.0 mg/kg/injection, schedule: Q01DX009 (ip), vehicle: Klucel (hydroxypropylcellulose) (HPC)): 129 % of control [9 of 10 alive]
- T/C (dose: 10.0 mg/kg/injection, schedule: Q01DX009 (ip), vehicle: Klucel (hydroxypropylcellulose) (HPC)): 143 % of control
- survivor count (dose: 80.0 mg/kg/injection, schedule: Q01DX009 (ip), vehicle: water): 10 of 10

Structure (SMILES): [Cl][Pt][Cl].[NH-]C(CO)C(=O)O (stereo unspecified)
- survivor count (dose: 50.0 mg/kg/injection, schedule: Q01DX009 (ip), vehicle: water): 9 of 10
- survivor count (dose: 100.0 mg/kg/injection, schedule: Q01DX009 (ip), vehicle: water): 1 of 10

Structure (SMILES): CC[n+]1ccc2c(C)c3[nH]c4ccc(O)cc4c3c(C)c2c1
- T/C (dose: 0.78 mg/kg/injection, schedule: Q01DX009 (ip), vehicle: saline): 129 % of control
- T/C (dose: 1.56 mg/kg/injection, schedule: Q01DX009 (ip), vehicle: saline): 140 % of control
- survivor count [5]: 5 of 8
- survivor count (dose: 25.0 mg/kg/injection, schedule: Q01DX009 (ip), vehicle: saline): 1 of 8
- survivor count [6]: 2 of 8

Structure (SMILES): CC(C)(C)NC(C1=CC(C)(C)c2ccccc2C1=O)c1ccccc1 (stereo unspecified)
- survivor count [7]: 3 of 10

Structure (SMILES): NCCCCC(NC(=O)OCC1c2ccccc2-c2ccccc21)C(=O)O (stereo unspecified)
- survivor count (dose: 200.0 mg/kg/injection, schedule: Q01DX009 (ip), vehicle: Klucel (hydroxypropylcellulose) (HPC)): 10 of 10
- survivor count [7]: 10 of 10

Structure (SMILES): CCCCCCC(=O)CC(SCC)c1ccccc1Cl (stereo unspecified)
- survivor count [2]: 10 of 10
- survivor count [4]: 10 of 10

Structure (SMILES): C=C(C)/C([O-])=N/[N+](C)(C)CC(O)CCCCCCCCCCCC (stereo unspecified)
- survivor count (dose: 200.0 mg/kg/injection, schedule: Q01DX001 (ip), vehicle: saline): 10 of 10
- survivor count (dose: 400.0 mg/kg/injection, schedule: Q01DX001 (ip), vehicle: saline): 4 of 10 and 5 of 10
- survivor count (dose: 800.0 mg/kg/injection, schedule: Q01DX001 (ip), vehicle: saline): 0 of 10

Structure (SMILES): COc1ccc(S(=O)(=O)N/N=C/C(=O)O)cc1
- T/C [1]: 126 [9 of 10 alive] and 137 % of control
- T/C [2]: 138 % of control
- survivor count [3]: 10 of 10
- survivor count [4]: 10 of 10

Structure (SMILES): CCO/C=C1\SC(=S)N(c2ccccc2C)C1=O
- survivor count [8]: 5 of 10 and 9 of 10

Structure (SMILES): c1ccc2sc(SSN3CC4CCC(CC4)C3)nc2c1
- survivor count [3]: 10 of 10
- survivor count [4]: 9 of 10
- survivor count [8]: 10 of 10

Structure (SMILES): O=c1n(CC2CO2)c(=O)n(CC2CO2)c(=O)n1CC1CO1 (stereo unspecified)
- T/C (dose: 6.25 mg/kg/injection, schedule: Q01DX009 (ip), vehicle: saline with Tween-80): 138 % of control
- T/C (dose: 6.25 mg/kg/injection, schedule: Q01DX009 (ip), vehicle: saline): 139 % of control
- T/C [5]: 141 and 147 % of control
- survivor count [2]: 10 of 10
- survivor count [6]: 10 of 10
- survivor count (dose: 50.0 mg/kg/injection, schedule: Q01DX009 (ip), vehicle: suspension in saline): 10 of 10
- survivor count [3]: 8 of 10 and 10 of 10
- survivor count (dose: 100.0 mg/kg/injection, schedule: Q01DX009 (ip), vehicle: saline): 2 of 10 and 10 of 10
- survivor count (dose: 100.0 mg/kg/injection, schedule: Q01DX009 (ip), vehicle: suspension in saline): 0 of 10 and 8 of 10
- survivor count [4]: 0 of 10 and 6 of 10
- survivor count (dose: 200.0 mg/kg/injection, schedule: Q01DX009 (ip), vehicle: suspension in saline): 0 of 10 and 1 of 10

Structure (SMILES): NC(CC(=O)CCl)C(=O)O (stereo unspecified)
- T/C (dose: 25.0 mg/kg/injection, schedule: Q01DX009 (ip), vehicle: Klucel (hydroxypropylcellulose) (HPC)): 134 % of control
- survivor count (dose: 50.0 mg/kg/injection, schedule: Q01DX009 (ip), vehicle: Klucel (hydroxypropylcellulose) (HPC)): 9 of 10
